# Laboratory results as given in the M2OR odorant receptor database.
# Chains of the proteins cited; added tags and fusions are not shown. A change or cut given only in a name is not applied to a line headed by its entry. Chains listed by the source or under a name are the forms on record and can include a tag or linker.
# UniProt Q8NGZ5: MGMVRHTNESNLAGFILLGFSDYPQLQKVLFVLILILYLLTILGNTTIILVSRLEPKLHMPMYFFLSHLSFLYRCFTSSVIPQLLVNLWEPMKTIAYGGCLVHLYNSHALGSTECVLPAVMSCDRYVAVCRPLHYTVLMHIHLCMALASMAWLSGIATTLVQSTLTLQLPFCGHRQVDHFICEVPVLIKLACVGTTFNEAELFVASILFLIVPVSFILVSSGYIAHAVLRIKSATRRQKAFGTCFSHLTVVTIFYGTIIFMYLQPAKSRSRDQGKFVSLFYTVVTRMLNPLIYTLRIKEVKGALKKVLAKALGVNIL
# OR2J2, as listed by the source: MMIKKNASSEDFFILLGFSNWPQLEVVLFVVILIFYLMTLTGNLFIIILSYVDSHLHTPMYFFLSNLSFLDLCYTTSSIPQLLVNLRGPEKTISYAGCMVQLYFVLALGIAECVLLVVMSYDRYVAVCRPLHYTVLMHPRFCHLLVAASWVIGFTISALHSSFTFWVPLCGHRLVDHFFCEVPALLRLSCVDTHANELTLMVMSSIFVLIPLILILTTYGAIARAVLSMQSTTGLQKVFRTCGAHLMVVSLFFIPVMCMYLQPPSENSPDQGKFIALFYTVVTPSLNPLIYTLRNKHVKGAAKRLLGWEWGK
# Numbering of substitutions follows the chain as printed. Only a part is listed here, and it is no random draw. Calls are pooled over several reports, among them a noisy single-well screen. The list shows a part of the results.
# Legend:
# Details in all cases: stereoisomer not certain
# OR2F2 = test system: T1, OR2F2
# T1 sequence (whole entry): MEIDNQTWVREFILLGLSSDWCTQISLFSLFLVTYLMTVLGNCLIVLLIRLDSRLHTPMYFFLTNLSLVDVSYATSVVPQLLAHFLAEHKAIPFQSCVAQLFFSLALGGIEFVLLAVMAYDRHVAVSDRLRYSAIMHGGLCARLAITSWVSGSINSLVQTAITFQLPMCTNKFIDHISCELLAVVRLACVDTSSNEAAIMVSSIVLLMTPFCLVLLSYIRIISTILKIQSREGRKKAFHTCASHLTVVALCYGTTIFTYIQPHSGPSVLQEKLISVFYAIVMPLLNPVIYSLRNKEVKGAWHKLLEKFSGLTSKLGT
# Outline: (§1)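 Assay methods differ from source to source, frequently being transient luciferase assays in mammalian cell lines. For each receptor–molecule pair, the label responsive (active) applies when the original authors judged the measured signal statistically different from baseline, and non-responsive (inactive) applies otherwise.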
# OR2G2 [1] = test system: T2, OR2G2
# T2 sequence (whole entry): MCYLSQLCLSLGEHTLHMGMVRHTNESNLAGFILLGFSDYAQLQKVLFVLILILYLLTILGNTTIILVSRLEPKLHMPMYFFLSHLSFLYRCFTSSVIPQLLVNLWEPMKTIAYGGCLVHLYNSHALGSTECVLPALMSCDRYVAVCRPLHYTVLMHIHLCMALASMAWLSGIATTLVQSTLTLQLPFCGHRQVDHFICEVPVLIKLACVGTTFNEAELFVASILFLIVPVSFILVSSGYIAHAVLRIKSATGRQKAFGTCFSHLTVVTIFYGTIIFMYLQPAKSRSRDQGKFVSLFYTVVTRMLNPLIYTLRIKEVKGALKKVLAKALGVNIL
# Outline: as §1
# OR2G2 [2] = test system: T3, OR2G2; remark: listed apart in the source
# T3 sequence (whole entry): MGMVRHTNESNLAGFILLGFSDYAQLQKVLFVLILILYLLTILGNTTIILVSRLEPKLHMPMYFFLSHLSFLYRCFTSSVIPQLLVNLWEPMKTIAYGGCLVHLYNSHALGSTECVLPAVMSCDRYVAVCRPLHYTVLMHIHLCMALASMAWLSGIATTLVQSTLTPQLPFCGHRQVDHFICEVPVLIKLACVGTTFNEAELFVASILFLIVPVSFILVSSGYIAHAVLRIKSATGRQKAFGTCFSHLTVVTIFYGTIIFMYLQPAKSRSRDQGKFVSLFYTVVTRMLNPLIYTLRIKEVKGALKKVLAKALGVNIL
# Outline: as §1
# OR2G3 (Homo sapiens) = molecular target: T4, OR2G3 (Homo sapiens) (UniProt Q8NGZ4)
# T4 sequence (whole entry): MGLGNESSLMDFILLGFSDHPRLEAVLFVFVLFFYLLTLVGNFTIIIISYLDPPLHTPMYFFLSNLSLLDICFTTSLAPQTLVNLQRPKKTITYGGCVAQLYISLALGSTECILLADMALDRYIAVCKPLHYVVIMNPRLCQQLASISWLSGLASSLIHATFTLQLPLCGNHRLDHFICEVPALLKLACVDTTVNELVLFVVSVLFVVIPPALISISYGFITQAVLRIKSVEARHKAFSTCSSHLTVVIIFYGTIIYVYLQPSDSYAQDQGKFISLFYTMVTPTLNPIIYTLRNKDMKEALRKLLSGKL
# Outline: as §1
# OR2G3 = test system: T5, OR2G3
# T5 sequence (whole entry): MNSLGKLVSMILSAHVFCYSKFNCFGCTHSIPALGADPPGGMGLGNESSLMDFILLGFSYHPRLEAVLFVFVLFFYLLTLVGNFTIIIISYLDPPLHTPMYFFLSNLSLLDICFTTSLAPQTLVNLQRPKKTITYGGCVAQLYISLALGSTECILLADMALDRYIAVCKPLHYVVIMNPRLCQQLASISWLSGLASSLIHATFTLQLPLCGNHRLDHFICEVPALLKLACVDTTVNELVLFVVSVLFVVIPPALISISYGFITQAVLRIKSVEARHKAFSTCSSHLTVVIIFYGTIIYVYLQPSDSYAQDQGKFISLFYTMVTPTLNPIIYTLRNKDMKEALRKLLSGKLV
# Outline: as §1
# OR2G6 (Homo sapiens) = molecular target: T6, OR2G6 (Homo sapiens) (UniProt Q5TZ20)
# T6 sequence (whole entry): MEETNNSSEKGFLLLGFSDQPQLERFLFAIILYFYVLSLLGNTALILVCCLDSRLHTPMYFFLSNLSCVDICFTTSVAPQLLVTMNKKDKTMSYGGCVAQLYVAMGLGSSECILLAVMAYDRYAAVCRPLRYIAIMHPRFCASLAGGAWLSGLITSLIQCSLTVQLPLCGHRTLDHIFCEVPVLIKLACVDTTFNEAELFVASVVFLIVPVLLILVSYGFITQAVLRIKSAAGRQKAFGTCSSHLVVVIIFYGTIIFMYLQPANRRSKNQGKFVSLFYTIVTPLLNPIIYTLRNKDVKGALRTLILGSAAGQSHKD
# Outline: as §1
# OR2H1 (Homo sapiens) = molecular target: T7, OR2H1 (Homo sapiens) (UniProt Q9GZK4)
# T7 sequence (whole entry): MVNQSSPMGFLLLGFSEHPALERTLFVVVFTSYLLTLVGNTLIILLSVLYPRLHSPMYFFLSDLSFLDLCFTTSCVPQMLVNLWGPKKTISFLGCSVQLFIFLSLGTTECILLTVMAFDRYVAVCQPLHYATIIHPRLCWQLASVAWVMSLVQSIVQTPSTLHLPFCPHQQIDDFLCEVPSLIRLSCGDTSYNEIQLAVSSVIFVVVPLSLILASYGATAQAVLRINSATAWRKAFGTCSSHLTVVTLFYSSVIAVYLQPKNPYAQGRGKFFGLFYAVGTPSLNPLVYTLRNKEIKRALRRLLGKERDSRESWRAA
# Outline: as §1
# OR2H2 [3] = test system: T8, OR2H2
# T8 sequence (whole entry): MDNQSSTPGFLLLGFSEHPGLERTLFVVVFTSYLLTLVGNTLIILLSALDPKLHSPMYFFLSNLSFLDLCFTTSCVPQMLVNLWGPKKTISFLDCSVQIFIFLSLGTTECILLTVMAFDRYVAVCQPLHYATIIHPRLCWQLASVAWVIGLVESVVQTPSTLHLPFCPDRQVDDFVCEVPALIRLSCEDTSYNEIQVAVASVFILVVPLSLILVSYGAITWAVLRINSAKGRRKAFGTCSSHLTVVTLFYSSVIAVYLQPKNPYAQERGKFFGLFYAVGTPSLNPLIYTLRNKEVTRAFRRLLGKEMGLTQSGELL
# Outline: as §1
# OR2H2 [4] = test system: T9, OR2H2; remark: listed apart in the source
# T9 sequence (whole entry): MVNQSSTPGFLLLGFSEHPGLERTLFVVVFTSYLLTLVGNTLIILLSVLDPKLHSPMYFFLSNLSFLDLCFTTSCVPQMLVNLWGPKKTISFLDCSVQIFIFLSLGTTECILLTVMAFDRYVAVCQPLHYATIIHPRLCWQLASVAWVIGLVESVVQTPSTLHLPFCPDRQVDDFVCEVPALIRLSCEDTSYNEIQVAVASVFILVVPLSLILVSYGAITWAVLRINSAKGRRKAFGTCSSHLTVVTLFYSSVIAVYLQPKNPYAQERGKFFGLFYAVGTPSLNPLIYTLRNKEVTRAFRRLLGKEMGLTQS
# Outline: as §1
# OR2J1 = test system: T10, OR2J1
# T10 sequence (whole entry): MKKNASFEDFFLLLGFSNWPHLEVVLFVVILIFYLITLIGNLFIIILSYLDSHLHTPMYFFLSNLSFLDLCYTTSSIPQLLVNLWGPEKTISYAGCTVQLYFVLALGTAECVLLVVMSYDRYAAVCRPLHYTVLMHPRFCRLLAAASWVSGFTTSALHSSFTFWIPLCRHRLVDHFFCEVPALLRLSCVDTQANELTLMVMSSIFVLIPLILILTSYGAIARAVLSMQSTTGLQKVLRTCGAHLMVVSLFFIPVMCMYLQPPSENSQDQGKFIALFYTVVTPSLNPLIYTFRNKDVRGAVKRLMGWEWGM
# Outline: as §1
# OR2J2 (Homo sapiens) = molecular target: T11, OR2J2 (Homo sapiens) (UniProt O76002)
# T11 sequence (whole entry): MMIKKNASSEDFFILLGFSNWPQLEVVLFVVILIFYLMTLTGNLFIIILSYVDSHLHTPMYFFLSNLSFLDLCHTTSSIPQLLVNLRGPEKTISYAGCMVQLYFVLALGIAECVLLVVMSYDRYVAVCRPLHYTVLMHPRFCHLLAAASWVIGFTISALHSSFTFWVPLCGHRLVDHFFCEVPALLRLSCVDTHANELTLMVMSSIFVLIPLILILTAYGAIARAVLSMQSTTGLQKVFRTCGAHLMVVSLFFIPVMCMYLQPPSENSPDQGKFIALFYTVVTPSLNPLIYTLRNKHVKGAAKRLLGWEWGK
# Outline: as §1
# OR2J2 [5] = test system: T12, OR2J2
# T12 sequence (whole entry): T11 sequence (whole entry) with A218T
# Outline: as §1
# OR2J2 [6] = test system: T13, OR2J2; remark: listed apart in the source
# T13 sequence (whole entry): T11 sequence (whole entry) with H74Y, A146V, A218T
# Outline: as §1
# OR2J2 [7] = test system: T14, OR2J2; remark: listed apart in the source
# T14 sequence (whole entry): T11 sequence (whole entry) with H74Y, A111T, A146V
# Outline: as §1
# OR2J3 (Homo sapiens) = molecular target: T15, OR2J3 (Homo sapiens) (UniProt O76001)
# T15 sequence (whole entry): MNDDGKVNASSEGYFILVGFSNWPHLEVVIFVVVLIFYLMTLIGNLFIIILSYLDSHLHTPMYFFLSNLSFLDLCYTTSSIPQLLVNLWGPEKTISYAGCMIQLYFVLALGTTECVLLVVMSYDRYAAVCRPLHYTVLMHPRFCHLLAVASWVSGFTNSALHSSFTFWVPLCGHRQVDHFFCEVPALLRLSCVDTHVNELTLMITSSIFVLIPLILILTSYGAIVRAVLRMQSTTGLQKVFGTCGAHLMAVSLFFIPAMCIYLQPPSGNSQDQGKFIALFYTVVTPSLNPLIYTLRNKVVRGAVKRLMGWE
# Outline: as §1
# OR2H2 (Homo sapiens) = molecular target: T16, OR2H2 (Homo sapiens) (UniProt O95918)
# T16 sequence (whole entry): T9 sequence (whole entry) with F30L, V48A
# Outline: as §1
# OR2G2 (Homo sapiens) = molecular target: T17, OR2G2 (Homo sapiens) (UniProt Q8NGZ5)
# T17 sequence (whole entry): T3 sequence (whole entry) with A24P, P167L, G236R
# Outline: as §1
SMILES,odorant receptor agonist call (OR2F2),odorant receptor agonist call (OR2G2 [1]),odorant receptor agonist call (OR2G2 [2]),odorant receptor agonist call (OR2G3 (Homo sapiens)),odorant receptor agonist call (OR2G3),odorant receptor agonist call (OR2G6 (Homo sapiens)),odorant receptor agonist call (OR2H1 (Homo sapiens)),odorant receptor agonist call (OR2H2 [3]),odorant receptor agonist call (OR2H2 [4]),odorant receptor agonist call (OR2J1),odorant receptor agonist call (OR2J2 (Homo sapiens)),odorant receptor agonist call (OR2J2 [5]),odorant receptor agonist call (OR2J2 [6]),odorant receptor agonist call (OR2J2 [7]),odorant receptor agonist call (OR2J3 (Homo sapiens)),odorant receptor agonist call (OR2H2 (Homo sapiens)),odorant receptor agonist call (OR2G2 (Homo sapiens))
O=C1CCCCCCCCCCCC(=O)OCCO1,inactive,inactive,inactive,inactive,inactive,inactive,inactive,inactive,inactive,inactive,inactive,inactive,inactive,inactive,inactive,–,–
CCCCCCCCCCC=O,inactive,inactive,inactive,inactive,inactive,inactive,inactive,inactive,inactive,inactive,inactive,inactive,inactive,inactive,inactive,active,–
CC12C=CCC1C1CCC3=CC(=O)CCC3(C)C1CC2 (stereo not drawn),active,inactive,inactive,inactive,inactive,inactive,inactive,active,inactive,inactive,inactive,inactive,inactive,inactive,inactive,–,–
CC(C)CC(=O)O,inactive,inactive,inactive,inactive,inactive,inactive,inactive,inactive,inactive,inactive,inactive,inactive,inactive,inactive,inactive,–,–
COC(=O)c1ccccc1,inactive,inactive,inactive,inactive,inactive,inactive,inactive,inactive,active,inactive,inactive,inactive,active,inactive,–,–,–
CCCCCCCC=O,inactive,inactive,inactive,inactive,inactive,inactive,inactive,inactive,inactive,inactive,inactive,inactive,inactive,inactive,active,active,–
C=CCc1ccc(OC(C)=O)c(OC)c1,inactive,inactive,inactive,inactive,inactive,inactive,inactive,inactive,inactive,inactive,inactive,inactive,inactive,active,active,–,inactive
CCCCCC(C)=O,inactive,inactive,inactive,inactive,inactive,inactive,inactive,inactive,inactive,inactive,inactive,inactive,inactive,inactive,–,–,inactive
CC12CCC(CC1)C(C)(C)O2,inactive,inactive,inactive,inactive,inactive,inactive,inactive,inactive,inactive,inactive,inactive,inactive,inactive,inactive,active,–,–
C=CC(C)(O)CCC=C(C)C (stereo not drawn),inactive,inactive,inactive,inactive,inactive,inactive,inactive,inactive,inactive,inactive,inactive,inactive,inactive,inactive,inactive,–,inactive
CC(C)C=O,inactive,inactive,inactive,inactive,inactive,inactive,inactive,inactive,inactive,inactive,inactive,inactive,inactive,inactive,inactive,–,–
CCCCCCCCOC(C)=O,inactive,inactive,inactive,inactive,inactive,inactive,inactive,inactive,inactive,inactive,inactive,inactive,inactive,inactive,active,–,–
CC(C)C(=O)O,inactive,inactive,inactive,inactive,inactive,inactive,inactive,inactive,inactive,inactive,inactive,inactive,inactive,inactive,inactive,–,–

# Limited to odorant receptor agonist call (OR2H2 [4]), odorant receptor agonist call (OR2H2 [3]) and odorant receptor agonist call (OR2G6 (Homo sapiens)), for some of the entries so far:
SMILES,odorant receptor agonist call (OR2H2 [4]),odorant receptor agonist call (OR2H2 [3]),odorant receptor agonist call (OR2G6 (Homo sapiens))
CCCCCC(C)=O,inactive,inactive,inactive
CC(C)C(=O)O,inactive,inactive,inactive
